Results taken from article PMC5698418 (Nature Communications, 2017).

Tested on: BDNF-induced nuclear Arc expression in primary cortical neurons
Test: Chemogenomic screen: high-content image-based assay of BDNF-induced nuclear Arc expression (96-well)
Format: cell-based, mouse
Settings: for Percentage of cell with nuclear Arc immunostaining above 2σ threshold: chemogenomic (SMART) screen, BDNF-induced nuclear Arc expression, primary cortical neurons, BDNF control 19.5; for Fold-change — Normalized to DMSO control (BDNF): nuclear Arc-positive cells relative to DMSO + BDNF control, negative values = decrease
Method: To increase the throughput of our pharmacological screening for modulators of Arc, the above mentioned assay was adapted to cultures of mouse primary cortical neurons in 96-well plates.
All 319 compounds were initially tested at a final concentration of 16.7 µM with three biological replicates.
Screening of compounds in the chemogenomic library was carried out using DIV13 primary forebrain cortical neurons cultured on poly-L-lysine/laminin-coated 96-well plates (Ibidi USA, Madison, WI). Cells were seeded at a density of 30,000 cells per well and treated with the compound library and BDNF according to the experimental design presented in Fig. 3a. After experimental treatment, cells were processed for Arc and acetyl-H3K9 immunocytochemistry according to the protocol described above. Both antigens (Arc and acetyl-H3K9) were imaged using an IN Cell Analyzer 6000 imaging system and a ×40 objective. […] High-throughput quantification of nuclear Arc immunofluorescence signal was performed in a similar fashion than the low-throughput procedure described above but with the exception that acetyl-H3K9 was used as a nuclear mask to guide the automated quantification of nuclear Arc immunofluorescence signal.

SMILES	Percentage of cell with nuclear Arc immunostaining above 2σ threshold [%]	Fold-change — Normalized to DMSO control (BDNF) [fold]
NS(=O)(=O)c1cc(C(=O)O)c(NCc2ccco2)cc1Cl [Furosemide]	22.7	1.2
Cc1cnc(C(=O)NCCc2ccc(S(=O)(=O)NC(=O)NC3CCCCC3)cc2)cn1 [Glipizide]	24.8	1.3
